The source of these data is paper PMC1820829.

Sequences of proteins named here, by UniProt entry; tags and fusion partners are left off.
UniProt P05804: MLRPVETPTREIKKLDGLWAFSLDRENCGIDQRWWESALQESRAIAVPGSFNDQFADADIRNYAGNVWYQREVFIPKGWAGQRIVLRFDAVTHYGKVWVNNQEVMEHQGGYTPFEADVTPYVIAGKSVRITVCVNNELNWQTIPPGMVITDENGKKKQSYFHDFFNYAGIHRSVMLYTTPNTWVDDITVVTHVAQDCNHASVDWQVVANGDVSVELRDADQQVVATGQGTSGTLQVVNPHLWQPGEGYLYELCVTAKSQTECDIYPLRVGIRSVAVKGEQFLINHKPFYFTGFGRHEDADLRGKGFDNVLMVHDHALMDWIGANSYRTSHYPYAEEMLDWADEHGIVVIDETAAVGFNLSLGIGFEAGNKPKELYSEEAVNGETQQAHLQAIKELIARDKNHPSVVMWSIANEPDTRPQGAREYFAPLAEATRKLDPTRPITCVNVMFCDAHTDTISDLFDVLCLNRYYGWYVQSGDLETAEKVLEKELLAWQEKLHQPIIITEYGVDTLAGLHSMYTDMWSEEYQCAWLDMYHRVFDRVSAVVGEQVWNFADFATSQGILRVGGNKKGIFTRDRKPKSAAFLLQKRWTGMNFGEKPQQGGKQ

Results are given in words; binding and its absence hold for the method and conditions named. In cells and extracts the contact can be indirect.

The test concerns the target GUS-YC (UniProt P05804). Put plainly: split reporter; BiFC with Citrine split into YN155 and YC155; co-expression in agroinfiltrated N. benthamiana leaves, intact living tissue observed by confocal microscopy at 46 hpi.

B1: gN-YN (protein, UniProt Q40392 1-1144)
chain: MASSSSSSRWSYDVFLSFRGEDTRKTFTSHLYEVLNDKGIKTFQDDKRLEYGATIPGELCKAIEESQFAIVVFSENYATSRWCLNELVKIMECKTRFKQTVIPIFYDVDPSHVRNQKESFAKAFEEHETKYKDDVEGIQRWRIALNEAANLKGSCDNRDKTDADCIRQIVDQISSKLCKISLSYLQNIVGIDTHLEKIESLLEIGINGVRIMGIWGMGGVGKTTIARAIFDTLLGRMDSSYQFDGACFLKDIKENKRGMHSLQNALLSELLREKANYNNEEDGKHQMASRLRSKKVLIVLDDIDNKDHYLEYLAGDLDWFGNGSRIIITTRDKHLIEKNDIIYEVTALPDHESIQLFKQHAFGKEVPNENFEKLSLEVVNYAKGLPLALKVWGSLLHNLRLTEWKSAIEHMKNNSYSGIIDKLKISYDGLEPKQQEMFLDIACFLRGEEKDYILQILESCHIGAEYGLRILIDKSLVFISEYNQVQMHDLIQDMGKYIVNFQKDPGERSRLWLAKEVEEVMSNNTGTMAMEAIWVSSYSSTLRFSNQAVKNMKRLRVFNMGRSSTHYAIDYLPNNLRCFVCTNYPWESFPSTFELKMLVHLQLRHNSLRHLWTETKHLPSLRRIDLSWSKRLTRTPDFTGMPNLEYVNLYQCSNLEEVHHSLGCCSKVIGLYLNDCKSLKRFPCVNVESLEYLGLRSCDSLEKLPEIYGRMKPEIQIHMQGSGIRELPSSIFQYKTHVTKLLLWNMKNLVALPSSICRLKSLVSLSVSGCSKLESLPEEIGDLDNLRVFDASDTLILRPPSSIIRLNKLIILMFRGFKDGVHFEFPPVAEGLHSLEYLNLSYCNLIDGGLPEEIGSLSSLKKLDLSRNNFEHLPSSIAQLGALQSLDLKDCQRLTQLPELPPELNELHVDCHMALKFIHYLVTKRKKLHRVKLDDAHNDTMYNLFAYTMFQNISSMRHDISASDSLSLTVFTGQPYPEKIPSWFHHQGWDSSVSVNLPENWYIPDKFLGFAVCYSRSLIDTTAHLIPVCDDKMSRMTQKLALSECDTESSNYSEWDIHFFFVPFAGLWDTSKANGKTPNDYGIIRLSFSGEEKMYGLRLLYKEGPEVNALLQMRENSNEPTEHSTGIRRTQYNNRTSFYELING
Take B1: the binding entry is given as “no binding”.
